Test results taken from PubChem BioAssay AID1347423 (Functional Genomics Laboratory (NCATS/FGL), 2020).
In all, about 52,000 sequences went through this assay and about 210 (0.4%) were called active.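 How the source made its calls: active means gene whose silencing raises cell survival under the drug, median off-target-corrected z-score across its silencing RNAs 2 or more; inactive means the rest.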 The list shows a part of the results.

assay: Resistance to Poly (ADP-Ribose) Polymerase inhibitor: Gene Identification via Genome-wide siRNA Screen; conditions: mouse BRCA2 R2336H ES cells, olaparib, CellTiter-Glo viability; hits give high values
In short: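 Mouse BRCA2 R2336H ES cells were reverse-transfected with siRNA (20 nM final), treated at 48 h with 500 nM olaparib, and read by CellTiter-Glo after 72 h. Scores: MAD-based z per siRNA, median per gene, seed off-target correction.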

Sequence	z-score
GCGAAUCUUGGUUAAGCCGTT against Hook1	inactive: -1.78
GGAAGUCCAUCAGCUUUAUTT against BC028975	inactive: 0.554
GGGAGUUUGAUUCUGACUCTT against Ank3	inactive: 0.274
GGACUUUGAGAACUUUUAUTT against C130053K05Rik	inactive: 0.249
GCAACAACGAGUCAUGGCUTT against Plcd	inactive: 0.689
GGGCUUGAGAACAACCAGATT against Adamdec1	inactive: -0.59
GGCGUGCUCUGACACAAAATT against A030009H04Rik	inactive: -0.22
GGUCCUACAUAAUACAACATT against Myohd1	inactive: -0.216
GCUUCUAGCCUGUAUUGCCTT against Rps8	inactive: -2.91
CGGCAGUGGAACAAUAGACTT against 1700028N11Rik	inactive: -0.512
GGGAGAUGUUACAACUCAGTT against Sod2	inactive: -0.0764
GGAAACUGGAUCAAACCAUTT against Smarcd3	inactive: 0.666
GCCAAAAAGUGUGUGUUGGTT against Olfr731	inactive: 0.36
GCUGGCUUCAUUUUACUUATT against Degs	inactive: 0.198
GCAGCCUUGUUUCAGUUCUTT against BC022623	inactive: -0.365
GGAGGAAGACCUUCAGAGATT against Ell2	inactive: -1.38
ACGUGGAAUCUGCUGUAAUTT against D9Ertd402e	inactive: -0.386
GGAGUAUCUGCUGUUCAGUTT against Gabpb1	inactive: -1.26
GGUUAACGGAUCAACAUUUTT against Ube2d2	inactive: -0.583
GGCGUAGGUCACCACAUUGTT against Spin2	inactive: -2.38
CGAAGAAUGACGAUGAUAUTT against 1110034C04Rik	inactive: -0.23
GCUCUUCUUACCACUGUAGTT against Wdfy3	inactive: 0.513
GGUGCUGAACAAGACCAAGTT against Cyp27a1	inactive: -0.0933
GGAAACAUCCACAAAGAGUTT against BC021438	inactive: -0.833
AGGAAUGCCCAGGUCUCAGTT against Lst1	inactive: 1.62
GGUUUGAGGAGUUAGGUUCTT against Sdhd	inactive: 0.687

Rewritten field by field: entries from further up
CGAAGAAUGACGAUGAUAUTT against 1110034C04Rik
  z-score: inactive: -0.23
GCUCUUCUUACCACUGUAGTT against Wdfy3
  z-score: inactive: 0.513

Following part.

Sequence	z-score
GGGCACAGACAUGUUUGAGTT against Padi3	inactive: 0.948
GCCGGUCCUUAGAGUUGUUTT against Olfr506	inactive: -0.632
CCACAUCAAGUCUAUCAUCTT against Ryr1	inactive: 0.509
GGAAAGACUAUGCCCAUCUTT against 4930474M22Rik	inactive: 0.475
GGACAAUGUCCUCCAAUCUTT against Rgnef	inactive: -1.42
CGUUGCACCUCUAUGGCAATT against 5832418A03Rik	inactive: -0.8
GGCAAGUGACAUUGUUCCUTT against Gm110	inactive: 0.4
GGAUCGGACUCUUUUAUAUTT against 2400006A19Rik	inactive: -2.97
GGAAGACUGCACAGAUGUGTT against Ramp1	inactive: -0.943
GCGAUCUAGUGAAGAUGUGTT against Rapgef4	inactive: -0.00169
GGAGAAAUUAGAGUGAUCGTT against Pcdha1	inactive: -2.02
GGAGUCAGAAUGUAUAAAUTT against C530015C18	inactive: 0.841
GGCAGACAAUGCAGUUAACTT against Atp8a2	inactive: -0.551
GCUAACUGAUACAUUAGAATT against Trim59	inactive: 0.479
GGGCUUGUCUAGCCAUGCATT against Wiz	inactive: 0.805
GGCAGUUUUGGGAUUGUUUTT against E4f1	inactive: 1.16
GCUAACCAUAAGUCUGUUUTT against Trim16	inactive: -0.103
GGCGGAAAAAGGAUUUCAATT against A230042K10Rik	inactive: -0.774
GGAGGUUGGGAUGAAUUAUTT against Rab6b	inactive: 0.998
CGGCCAACUUGCUCAAUGATT against Cnnm2	inactive: -0.767
GAUUGGCAAUUGUGGCCAUTT against Defb4	inactive: -0.36
GAUUGUGUCGUCCAUUACATT against Tuba3	inactive: -1.62
GGAAAAGAGACAGAAUUUGTT against 2610103M17Rik	inactive: 1.33
GCACGUAUACUAAAAUUGGTT against 2310014L17Rik	inactive: -0.129
GAGAACUGCUACGACUCUGTT against Coro2a	inactive: 0.335
GGGAGAUUCUAUGAGGACUTT against Depdc5	inactive: 0.365

Sequence	z-score
CCCAAUACAUAUGUUAAGUTT against Syt14	inactive: 1.05
GGACUCCUUCCACCACAAUTT against Amid	inactive: 0.0312
GGUAACAUGGCAGAUUUUATT against 2810003C17Rik	inactive: 0.782
GGACAGCCGUGUAGUAACCTT against Cpne1	inactive: -0.577
GGUAUGACUUGCUCUUUAUTT against Rnpep	inactive: 0.858
GCUCUUCCGAUUAAUGCAGTT against Gabra6	inactive: 0.459
GCGAUCCACGAGAAACAGATT against 3110038B19Rik	inactive: 0.617
GGAAUUUCACCUAAAUUGATT against Blzf1	inactive: 0.355
GGACUUUUUCAAAGGUUUUTT against Eif4g3	inactive: -1.38
GGUAUUCACAAAGAGAUACTT against D13Ertd275e	inactive: 0.596
GGAAUCGCUAUUUCUGAUATT against Sgk3	inactive: 0.46
GGAUAUUUGUGUUCCUAAGTT against V1ri9	inactive: -0.283
GCGAUUACACCACAAACCATT against Cth	inactive: -1.64
CGAGAUUGGAGUCAUGUUUTT against Adcy3	inactive: 1.26
GGAACUUCUACAGUCCUCCTT against BC055447	inactive: 0.621
GGAGGAGUUGCACCUCAUCTT against Pctk3	inactive: 0.655
GGAGUACGACUACUACGGUTT against Sfrp5	inactive: 2.17
GGUACGCAUUCCACAGUUCTT against Tbx10	inactive: -0.347
CCUUUACUUCACUCUUAGCTT against Kiaa0298-hp	inactive: 0.134
CCCUCUUUUCGUUUUCUACTT against 1700129C05Rik	inactive: 0.137
GCUAUUAGGAAAUGAAAGATT against Ncald	inactive: 1.27
GCACAGGACUGAUGCUAAGTT against 9530020G05Rik	inactive: 1.84
CGGACAAGUGUUUUUCGUUTT against Wwox	inactive: 0.356
CCGUAGAAAUACCAUAGACTT against Cables1	inactive: 1.94
GGUACACCCUAGGAAAGAUTT against Pbxip1	inactive: -0.435
GGAUAUGCAGUGGAACUAUTT against Heph	inactive: -0.716

Some of the entries above, reformatted:
GGAUCGGACUCUUUUAUAUTT against 2400006A19Rik
  z-score: inactive: -2.97
GAGAACUGCUACGACUCUGTT against Coro2a
  z-score: inactive: 0.335
GGAUAUUUGUGUUCCUAAGTT against V1ri9
  z-score: inactive: -0.283

Additional results

Sequence	z-score
GGCAGUUAAUUUCUUUGGATT against Ica1	inactive: 0.513
GGAUUGCCCUGUGGACAAGTT against Nr4a1	inactive: -0.983
GGGUUCAGAGGUCAUCAACTT against 1810054G18Rik	inactive: -0.296
GAAAUGUGGAAAGACACUGTT against Crip1	inactive: 1.66
GUGUGGCUCUUAUGUACCUTT against Olfr427	inactive: 0.701
GGCAAAGGAUAGUGGACAATT against Clic1	inactive: 2.48
GUGAGUAGGUAGGAAGCAUTT against Cd200r2	inactive: 0.207
CACGCAGAUGAUUAAGUUGTT against Olfr1000	inactive: 0.555
CCUUGCCAAGACAGAAUAUTT against Pramel3	inactive: 0.255
GGUUUUCAGCUGCAUCAUGTT against Olfr303	inactive: 1.04
CCUCUGGAUCUACGAGCUGTT against Odf4	inactive: -0.535
GCUACUAACCAUCGGCUUCTT against 1700067K01Rik	inactive: -1.07
CGGAAACGAAGACUUGAAATT against 9330140K16Rik	inactive: 1.08
GGGAGAGCGAGGAAGAUAATT against Sox9	inactive: -0.655
UCUCAAAGACGAAUAUCAUTT against Olfr875	inactive: 1.01
GGCGACGUACCAUCACCUATT against Senp3	inactive: 0.37
GCAUGUUUCUAAACUUAGUTT against Sh3rf2	inactive: -0.444
CCAUUUUUGCUCAAUUUGCTT against Eif1ay	inactive: -0.333
GCAAAGUUGAGUGCACUUATT against Scrn1	inactive: -0.0844
GAGCCAAGUACCAUCUAUATT against Olfr389	inactive: -0.306
GGUAUGUCUGAUGCAUAGGTT against Mos	inactive: 0.526
GGAGAAGAUAAAAUGGAUGTT against Ptbp2	inactive: 0.496
GGUAUUCUUCUGUCUAUGATT against Olfr1107	inactive: -0.814
CCUGUGGAUCCAUUUGUUCTT against Tex15	inactive: -0.494
CCUAGAGUACUAUUAAAAGTT against Srrm2	inactive: 0.352
GGAAGUACAAUGCAAUCAATT against Obox3	inactive: 1.02
